Results are given in words; binding and its absence hold for the method and conditions named. Binding seen in cells or lysates may run through a third protein. For part of these data: Binding can be weak; no strength is given.
How the values were obtained:
Assay in all cases: co-IP; Flag-tagged FL or mutant BAG3 immunoprecipitated from HEK293 lysate (20 mmol/L Tris-HCl, 150 mmol/L NaCl, 2 mmol/L EDTA, 1% Triton-X100; protein A/G magnetic beads, overnight at 4°C); blot for p53
[1] = target: Flag-tagged mutant BAG3 without BAG domain (human) (UniProt O95817)
[2] = target: Flag-tagged mutant BAG3 without PxxP domain (human) (UniProt O95817)
[3] = target: Flag-tagged mutant BAG3 without WW domain (human) (UniProt O95817)

Myc-tagged full-length (FL) p53 (from UniProt P04637 1-393)
binding [1]: no binding
binding [2]: binds
binding [3]: binds
